Measured data: PubChem BioAssay AID1259254 (NCATS, 2017)
Assay: 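Genome-wide screen for genes that prevent DNA re-replication in cancer cells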 (primary screen). Cell system: human HCT116 colorectal cancer cells. Reagents: single siRNA against human genes. Duration: 3 days. Read-out: 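Imaged Hoechst DNA stain sorts each cell into a cycle phase by DNA amount; per plate, G2 fraction set to 0% for non-targeting and 100% for GMNN siRNA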. Scale: G2 robust z-score and G2 cells, % of GMNN control: higher = more G2 cells, more excess DNA replication; raw share of cells in G2: higher = larger share of cells with G2 DNA content. Hit rule: 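Active siRNAs have a G2 robust z of 5 or more median absolute deviations over the median, which in these data means about 38% or higher of GMNN control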.
In all, the deposit lists about 59,000 reagents; this is a random part of them. About 1,550 of all reagents (2.6%) count as active. 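G2 share is only a proxy for re-replication; each gene was hit by three separate siRNAs, and active genes were retested.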 Raw values are not corrected between plates. Entries without a mark were called inactive. Reagents against one gene are numbered here. Not stated in the record: the amount of reagent.

target | siRNA no. | G2 robust z-score | G2 cells, % of GMNN control | raw share of cells in G2 (%)
EMILIN2 | 1 | 0.342 | 5.37 | 4.69
EMILIN2 | 2 | 2.25 | 18.8 | 14.4
EMILIN2 | 3 | -1.26 | -5.89 | 1.78
GRID1 | 1 | 2.48 | 20.4 | 12.7
GRID1 | 2 | -0.0879 | 2.35 | 5.58
GRID1 | 3 | 5.45 (active) | 41.3 | 20.5
TASL | 1 | -0.152 | 1.9 | 5.23
TASL | 2 | 0.558 | 6.89 | 7.32
TASL | 3 | 4.41 | 34 | 11.7
TEKT5 | 1 | 0.906 | 9.34 | 6.96
TEKT5 | 2 | -0.728 | -2.15 | 2.25
TEKT5 | 3 | -0.796 | -2.63 | 2.15
CLCA1 | 1 | 0.44 | 6.06 | 7.49
CLCA1 | 2 | 0.984 | 9.89 | 8.13
CLCA1 | 3 | -0.4 | 0.152 | 4.43
MATR3 | 1 | -0.759 | -2.38 | 3.79
MATR3 | 2 | -0.808 | -2.72 | 4.18
MATR3 | 3 | -0.807 | -2.71 | 2.28
PMM1 | 1 | -0.919 | -3.5 | 3.77
PMM1 | 2 | -0.272 | 1.06 | 4.5
PMM1 | 3 | 5.63 (active) | 42.6 | 20.9
ZNF461 | 1 | 0.822 | 8.75 | 6.1
ZNF461 | 2 | -0.0784 | 2.42 | 4
ZNF461 | 3 | -0.74 | -2.24 | 2.74
GLS2 | 1 | 2.33 | 19.4 | 15
GLS2 | 2 | 2.1 | 17.7 | 9.79
GLS2 | 3 | -0.0503 | 2.61 | 5.06
POLR2A | 1 | 4.29 | 33.2 | 16.4
POLR2A | 2 | 1.69 | 14.9 | 10.4
POLR2A | 3 | 3.2 | 25.5 | 12.6
HBZ | 1 | -0.946 | -3.69 | 3.7
HBZ | 2 | -1.07 | -4.59 | 3.94
HBZ | 3 | -0.462 | -0.284 | 4.1
NME7 | 1 | -0.299 | 0.862 | 5.86
NME7 | 2 | 1.99 | 17 | 11.4
NME7 | 3 | -0.509 | -0.611 | 3.49
GAL | 1 | -0.328 | 0.661 | 4.11
GAL | 2 | 0.103 | 3.69 | 5.94
GAL | 3 | 5.11 (active) | 38.9 | 15.5
SEC24A | 1 | 1.98 | 16.9 | 9.3
SEC24A | 2 | 0.273 | 4.89 | 8.41
SEC24A | 3 | -1.24 | -5.74 | 3.2
JCADP1 | 1 | -0.0193 | 2.83 | 5.01
JCADP1 | 2 | -0.985 | -3.96 | 2.04
JCADP1 | 3 | -0.473 | -0.36 | 2.97
ABCD4 | 1 | 0.639 | 7.47 | 6.63
ABCD4 | 2 | -0.905 | -3.4 | 3.38
ABCD4 | 3 | 1.66 | 14.6 | 10
USP42 | 1 | -0.788 | -2.58 | 4.51
USP42 | 2 | -1.49 | -7.54 | 1.99
USP42 | 3 | -0.166 | 1.8 | 4.93
ANGPTL7 | 1 | -0.126 | 2.08 | 6.6
ANGPTL7 | 2 | -0.808 | -2.72 | 2.96
ANGPTL7 | 3 | -0.0876 | 2.35 | 7.41
UCHL3 | 1 | 0.649 | 7.53 | 8.18
UCHL3 | 2 | -0.334 | 0.617 | 5.13
UCHL3 | 3 | 0.517 | 6.6 | 6.37
LGI4 | 1 | 0.16 | 4.09 | 6.42
LGI4 | 2 | -0.864 | -3.11 | 4.47
LGI4 | 3 | 1.03 | 10.2 | 8.43
OR13A1 | 1 | 0.296 | 5.05 | 6.78
OR13A1 | 2 | 4.82 | 36.9 | 21.1
OR13A1 | 3 | -0.918 | -3.49 | 1.78
FIZ1 | 1 | 0.279 | 4.93 | 4.53
FIZ1 | 2 | 1.39 | 12.8 | 11.7
FIZ1 | 3 | -0.64 | -1.54 | 3.15
GCM1 | 1 | -0.754 | -2.33 | 4.44
GCM1 | 2 | 1.04 | 10.3 | 9.2
GCM1 | 3 | -0.983 | -3.95 | 3.29
TMEM117 | 1 | -0.0917 | 2.32 | 4.88
TMEM117 | 2 | 4.51 | 34.7 | 13.8
TMEM117 | 3 | -0.794 | -2.62 | 1.61
BHMT | 1 | -1.27 | -5.98 | 2.68
BHMT | 2 | -1.03 | -4.3 | 3.54
BHMT | 3 | 1.71 | 15 | 9.57
RPAIN | 1 | 3.3 | 26.2 | 12.8
RPAIN | 2 | 1.48 | 13.4 | 7.42
RPAIN | 3 | -1.08 | -4.62 | 1
KBTBD13 | 1 | -0.56 | -0.971 | 2.98
KBTBD13 | 2 | 0.373 | 5.59 | 7.03
KBTBD13 | 3 | -0.499 | -0.543 | 3.59
RAB12 | 1 | -0.0503 | 2.61 | 5.8
RAB12 | 2 | 0.756 | 8.28 | 7.73
RAB12 | 3 | 1.55 | 13.9 | 12.6
CAP1 | 1 | 0.0511 | 3.33 | 6.83
CAP1 | 2 | 1.07 | 10.5 | 8.32
CAP1 | 3 | 2.17 | 18.2 | 10

Quoted from above for reference:
target | siRNA no. | G2 robust z-score | G2 cells, % of GMNN control | raw share of cells in G2 (%)
FIZ1 | 3 | -0.64 | -1.54 | 3.15
GCM1 | 1 | -0.754 | -2.33 | 4.44
GCM1 | 2 | 1.04 | 10.3 | 9.2
GCM1 | 3 | -0.983 | -3.95 | 3.29
